Results: article PMC5461640 (Pharmacology Research & Perspectives, 2017)

Test: peptide synthesis
Details: for crude HPLC purity: 220 nm

Substance	step yield (lipidation step) [%]	final HPLC purity (lipidation step, HPLC (Kinetex 1.7 um C8, 0.05% formic acid water/MeCN, 220 nm)) [%]	step yield (late stage modification step) [%]	crude HPLC purity (late stage modification step) [%]	crude HPLC purity (lipidation step) [%]
PEPTIDE1{[Pal].C.Y.I.Q.N.C.P.L.G.[am]}|PEPTIDE2{[Pal]}$PEPTIDE1,PEPTIDE1,2:R3-7:R3|PEPTIDE1,PEPTIDE2,3:R3-1:R2$$$V2.0	79	98.2			
PEPTIDE1{C.Y.I.Q.N.C.P.L.G.[am]}|PEPTIDE2{[Pal]}$PEPTIDE1,PEPTIDE1,1:R3-6:R3|PEPTIDE1,PEPTIDE2,2:R3-1:R2$$$V2.0			85	98.8	
PEPTIDE1{[Pal].C.Y.I.Q.N.C.P.L.G.[am]}$PEPTIDE1,PEPTIDE1,2:R3-7:R3$$$V2.0	95				97.8

Some peptides are written in HELM: one residue between dots, names in brackets for other building blocks, links after the first $.
